At least one read-out could not be matched to a standard name with certainty.
System: rOaAEP1b
Experiment: Kinetics of rOaAEP1b-mediated cyclisation of wt kB1 precursor (RP-HPLC, Michaelis-Menten)
Format: biochemical, Oldenlandia affinis
Conditions: from Michaelis-Menten plot
Experimental: FIG. 7 is a graphical representation showing the kinetics of rOaAEP1b-mediated cyclisation. Varying concentrations of substrate (kB1wt precursor) were incubated with enzyme (19.7 μg mL^−1 total protein) for 5 min. The amount of product formed was inferred by monitoring depletion of the precursor by RP-HPLC. […] The kinetic parameters derived from this plot are listed (±SEM).
To determine the kinetics of rOaAEP1b activity against the wt kB1 precursor (FIG. 1; SEQ ID NO: 11), the substrate was assayed at room temperature at a range of concentrations between 75 and 250 μM in a total volume of 20-160 μl of activity buffer. The total protein concentration of the enzyme preparation added to the kinetic assays was 19.7 μg ml^−1. The reaction was quenched after 5 min with 0.1% TFA and the volume adjusted to 800 μl. A volume of 700 μl was loaded onto a reversed-phase C18 analytical column (Agilent Eclipse C18, 5 μm, 4.6×150 mm) and peptides were separated by HPLC (19 min linear gradient of 12-60% acetonitrile, 0.1% TFA at 1 ml min^−1). The identity of eluted peaks was confirmed using MALDI MS. The area under the curve corresponding to the precursor peptide was quantitated by comparison to a standard curve and initial velocities were calculated by converting this to μmoles product formed. […]

## wt kB1 precursor: synthetic linear kalata B1 precursor carrying the native C-terminal pro-hepta-peptide (GLPSLAA) (GLPVCGETCVGGTCNTPGCTCSWPVCTRNGLPSLAA; kB1wt)
  kcat/Km: 2,500 M^−1 s^−1

Reference: patent US20190225652A1, “GENERATION OF PEPTIDES” (Hexima Limited, priority 2015, published 2019)
